These are yes or no findings as the source states them, for the method shown. Binding seen in cells or lysates may run through a third protein. Some results given as binding are weak or reduced against the parent protein; the word gives no strength.

The chains behind the UniProt entries cited, without tags or fusion partners. Where a name states a change or a piece, a line headed by the entry shows the natural chain unless it says otherwise.
UniProt P63104: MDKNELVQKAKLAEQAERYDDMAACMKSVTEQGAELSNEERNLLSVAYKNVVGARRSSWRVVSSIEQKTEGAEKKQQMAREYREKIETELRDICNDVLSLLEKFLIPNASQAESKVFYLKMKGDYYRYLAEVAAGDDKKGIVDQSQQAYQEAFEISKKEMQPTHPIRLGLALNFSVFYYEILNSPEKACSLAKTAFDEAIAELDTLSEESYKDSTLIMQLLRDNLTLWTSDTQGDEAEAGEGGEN
UniProt P06733: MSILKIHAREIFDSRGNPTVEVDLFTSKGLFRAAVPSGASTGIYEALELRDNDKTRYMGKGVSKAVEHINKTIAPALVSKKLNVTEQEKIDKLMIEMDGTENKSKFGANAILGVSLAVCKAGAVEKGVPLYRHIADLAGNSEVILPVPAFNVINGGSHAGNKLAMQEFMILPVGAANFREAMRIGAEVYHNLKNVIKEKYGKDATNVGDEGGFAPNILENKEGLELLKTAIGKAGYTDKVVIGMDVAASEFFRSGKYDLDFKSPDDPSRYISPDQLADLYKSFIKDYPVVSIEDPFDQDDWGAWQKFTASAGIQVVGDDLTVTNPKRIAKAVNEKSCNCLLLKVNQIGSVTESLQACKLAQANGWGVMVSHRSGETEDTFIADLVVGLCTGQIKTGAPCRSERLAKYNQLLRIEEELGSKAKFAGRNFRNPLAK
UniProt Q9UBN7: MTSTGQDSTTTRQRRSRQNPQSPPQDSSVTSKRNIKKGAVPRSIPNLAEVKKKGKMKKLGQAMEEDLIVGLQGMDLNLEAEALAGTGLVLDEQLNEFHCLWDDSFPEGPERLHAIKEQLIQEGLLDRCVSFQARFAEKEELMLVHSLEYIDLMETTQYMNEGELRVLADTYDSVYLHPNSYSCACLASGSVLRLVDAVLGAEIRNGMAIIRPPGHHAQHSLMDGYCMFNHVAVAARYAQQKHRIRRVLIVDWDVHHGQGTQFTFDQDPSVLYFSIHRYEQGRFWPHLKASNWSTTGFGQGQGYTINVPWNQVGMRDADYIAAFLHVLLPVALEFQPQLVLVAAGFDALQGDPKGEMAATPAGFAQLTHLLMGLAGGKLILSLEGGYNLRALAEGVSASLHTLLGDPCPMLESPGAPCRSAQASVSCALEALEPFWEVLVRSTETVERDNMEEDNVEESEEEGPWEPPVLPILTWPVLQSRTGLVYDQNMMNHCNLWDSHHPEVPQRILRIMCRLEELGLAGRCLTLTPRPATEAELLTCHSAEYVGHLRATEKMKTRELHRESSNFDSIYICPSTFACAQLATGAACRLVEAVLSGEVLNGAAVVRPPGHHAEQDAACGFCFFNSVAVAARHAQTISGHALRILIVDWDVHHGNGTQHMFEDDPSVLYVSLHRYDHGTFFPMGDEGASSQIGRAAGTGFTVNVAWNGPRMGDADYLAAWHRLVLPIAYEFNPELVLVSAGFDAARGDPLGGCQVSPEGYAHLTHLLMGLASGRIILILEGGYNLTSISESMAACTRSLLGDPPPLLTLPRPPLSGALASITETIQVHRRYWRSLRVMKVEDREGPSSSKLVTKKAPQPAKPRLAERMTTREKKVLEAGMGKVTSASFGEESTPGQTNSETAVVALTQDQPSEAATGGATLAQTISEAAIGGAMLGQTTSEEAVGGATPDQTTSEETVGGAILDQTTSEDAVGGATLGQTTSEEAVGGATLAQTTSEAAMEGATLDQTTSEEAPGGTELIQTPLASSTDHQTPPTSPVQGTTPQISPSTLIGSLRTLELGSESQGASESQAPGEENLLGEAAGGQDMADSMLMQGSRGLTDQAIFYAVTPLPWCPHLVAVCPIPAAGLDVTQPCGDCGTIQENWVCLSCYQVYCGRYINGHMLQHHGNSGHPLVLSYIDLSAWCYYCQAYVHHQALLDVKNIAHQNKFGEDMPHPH
UniProt O60260: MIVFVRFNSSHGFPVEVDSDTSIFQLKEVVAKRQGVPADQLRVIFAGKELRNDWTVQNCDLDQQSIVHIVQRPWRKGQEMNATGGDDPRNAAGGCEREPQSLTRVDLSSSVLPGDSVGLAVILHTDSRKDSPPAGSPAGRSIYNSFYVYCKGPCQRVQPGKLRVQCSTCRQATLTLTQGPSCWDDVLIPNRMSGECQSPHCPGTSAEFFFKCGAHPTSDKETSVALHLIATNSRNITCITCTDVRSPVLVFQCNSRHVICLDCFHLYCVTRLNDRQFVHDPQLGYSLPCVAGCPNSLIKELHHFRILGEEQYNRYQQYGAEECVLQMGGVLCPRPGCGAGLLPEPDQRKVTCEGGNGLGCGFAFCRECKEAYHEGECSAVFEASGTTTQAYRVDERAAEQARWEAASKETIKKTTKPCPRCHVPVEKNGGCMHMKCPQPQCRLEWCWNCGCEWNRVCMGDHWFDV

Assay [1] concerns the target YWHAZ (14-3-3ζ), endogenous in multiple myeloma cells (human (endogenous in H929)) (UniProt P63104). As to the kind of experiment: co-IP; endogenous proteins in lysates of MM cells (H929); 2 µg antibody (anti-ENO1, anti-YWHAZ, anti-HDAC6) and magnetic agarose beads, 4 °C overnight; western blot. (In general: A western blot detects proteins with antibodies after separation by electrophoresis.)

Assay [2] has as its target Flag-YWHAZ (UniProt P63104). Put plainly: co-IP; HEK293T cells transfected with Flag-YWHAZ and HA-ENO1 (full length, truncated forms or enzymatic mutants); lysates immunoprecipitated with anti-Flag, blotted with anti-HA or anti-Flag.
The target of assay [3] is Flag-YWHAZ (UniProt P63104). Put plainly: co-IP; HEK293T cells overexpressing HA-ENO1 with Flag-YWHAZ vector, WT or K138R; IP-western blot, Parkin detected in the immunoprecipitate.
For assay [4], the target named is Enolase 1 (ENO1), endogenous in multiple myeloma cells (human (endogenous in H929)) (UniProt P06733). Put plainly: co-IP; endogenous proteins in lysates of MM cells (H929); 2 µg antibody (anti-ENO1, anti-YWHAZ, anti-HDAC6) and magnetic agarose beads, 4 °C overnight; western blot.
Assay [5] deals with HDAC6, endogenous in multiple myeloma cells (human (endogenous in H929)) (UniProt Q9UBN7). The description is as above.

Take “Enolase 1 (ENO1), endogenous in multiple myeloma cells (from UniProt P06733 1-434) (enzyme)”: the binding result in assay [1] was “binds”.

Turning to “HA-ENO1 H158A (enzymatically inactive mutant, HA-Mut1) (from UniProt P06733 1-434) (enzyme)”, the binding result in assay [2] is “binds”.

“HA-ENO1 K343R (enzymatically inactive mutant, HA-Mut2) (from UniProt P06733 1-434) (enzyme)”: the binding entry in assay [2] is “binds”.

With “HA-tagged ENO1 (HA-ENO1), full length (from UniProt P06733 1-434) (enzyme)”, in assay [2], the binding entry is “binds”.

Regarding “Parkin (from UniProt O60260 1-465) (enzyme)”, in assay [3], the binding entry is “binds”.

As for “YWHAZ (14-3-3ζ), endogenous in multiple myeloma cells (from UniProt P63104 1-245)”, the binding result in assay [4] and in assay [5] was “binds” in each case.

Values taken from publication PMC11744840.
